Source: PubChem BioAssay AID1487 (National Center for Advancing Translational Sciences (NCATS), 2009)
The list shows a part of the results. The main result of the screen is listed elsewhere. These columns were measured beside it and carry no call. Compounds called inactive in the main read-out are mostly missing here. Words in brackets tell the shape of the fitted curve; partial curves, single points and poor fits give uncertain potencies.

Test: qHTS Assay for Modulators of Lamin A Splicing
Conditions: HeLa LMNA splicing GFP/RFP minigene ratio, 48 h
In short: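 S3 HeLa stable clones carrying a lamin A-EGFP splicing minigene plus DsRed2 were seeded at 600 cells/well in Opti-MEM with 2% FBS, pin-dosed and incubated 48 h at 37°C. Acumen cytometry (488 nm) gave the GFP/RFP total-intensity ratio.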

[1] = measured here: RFP viability control channel
[2] = measured here: GFP splicing reporter channel

Compound | AC50 [1] | AC50 [2]
Cc1cccc(OCC(=O)OCc2cc(=O)n3nc(-c4cccs4)sc3n2)c1 | 0.00562 µM [falling, full curve, poor fit] | –
COc1ccc(C(=O)N2N=C(c3ccccc3)CC2(O)C(F)(F)F)cc1 (configuration not stated) | 35.5 µM [rising, single point] | 35.5 µM [rising, single point]
NCC1CCC(C(=O)O)CC1 (configuration not stated) | 14.1 µM [falling, single point] | 14.1 µM [falling, single point]
N#Cc1nc(COc2ccc(-c3ccccc3)cc2)oc1NCCCN1CCOCC1 | 12.6 µM [rising, single point] | 11.2 µM [rising, single point]
CC(C)n1c(SCC(=O)Nc2ccccc2N2CCCCC2)nc2c1c(=O)n(C)c(=O)n2C | 5.62 µM [rising, single point] | –
NC(=O)c1cc[n+](CC2=C(C(=O)[O-])N3C(=O)[C@@H](NC(=O)Cc4cccs4)[C@@H]3SC2)cc1 | 1.58 µM [falling, single point] | 1.12 µM [falling, single point]
COc1ccc(Nc2nnc(SCC(=O)/C=C3/N(C)c4ccccc4C3(C)C)s2)cc1 | 17.8 µM [rising, partial curve] | 22.4 µM [rising, single point]
O=C(CSc1nnc(Cc2csc(Nc3cccc(Cl)c3)n2)o1)N1CCc2ccccc21 | 14.1 µM [rising, partial curve] | –
Cc1ccc(Cl)cc1N1CCN(C(=O)C2CCN(c3nnc(-n4cccc4)s3)CC2)CC1 | 2.51 µM [rising, full curve] | 1.26 µM [rising, partial curve, poor fit]
CNC(=S)N/N=C/c1cn(Cc2c(F)cccc2Cl)c2ccccc12 | 25.1 µM [rising, single point] | 14.1 µM [rising, single point]
O=C(c1ccccc1Cl)N1N=C(c2ccc(Br)cc2)CC1c1nc2ccccc2[nH]1 (configuration not stated) | 35.5 µM [falling, single point] | 25.1 µM [falling, single point]
CCOC(=O)c1cccc(NC(=O)c2cc3sccc3n2C)c1 | 22.4 µM [rising, single point] | –
COc1ccc(N2CCN(C(=O)Cc3nn(C)c(=O)c4ccccc34)CC2)cc1 | 35.5 µM [rising, single point] | –
CCC(=O)OCCNc1cc(SCCC(=O)OC)c2nonc2c1[N+](=O)[O-] | – | 1 µM [falling, partial curve, poor fit]
O=c1cc(-c2ccccc2)c2cc3c(cc2[nH]1)OCCO3 | 35.5 µM [rising, single point] | –
CCCCC(=O)NC(=S)Nc1ccc(NC(=O)C(C)C)c(OC)c1 | – | 0.0158 µM [falling, full curve]
Cc1nnc(NC(=O)CSc2nccn2-c2ccc(Cl)cc2)s1 | 39.8 µM [falling, partial curve, poor fit] | 22.4 µM [falling, partial curve, poor fit]
Cc1ccc(C)n1-c1ccc(C(=O)NC2CCN(Cc3ccccc3)CC2)cc1 | 14.1 µM [rising, partial curve] | 15.8 µM [rising, partial curve]
Cc1ccc(CSCCNC(=O)c2ccc(N(C)S(=O)(=O)c3ccccc3)cc2)cc1 | 15.8 µM [rising, single point] | –
COc1cc([N+](=O)[O-])cc(/C=N/N(CCC#N)C(C)=O)c1O | 10 µM [rising, partial curve, poor fit] | 8.91 µM [rising, partial curve, poor fit]
O=c1oc2ccccc2n1CCc1ccccc1 | 15.8 µM [rising, single point] | –
COc1cc(C)c(Cl)cc1S(=O)(=O)NCc1ccncc1 | 2.82 µM [rising, full curve] | –
COC(=O)c1c(C)oc2ccc(NS(=O)(=O)c3cccs3)cc12 | 14.1 µM [rising, single point] | 17.8 µM [rising, partial curve]
CC(=O)c1ccc(N2CCN(C(=O)c3ccc(OCc4c(C)noc4C)cc3)CC2)cc1 | 31.6 µM [rising, single point] | 5.62 µM [rising, partial curve]
N#Cc1c(-c2ccccc2)nc(-c2ccncc2)[nH]c1=O | – | 0.0631 µM [rising, full curve, poor fit]
CCN(CC)S(=O)(=O)N1CCC(C(=O)NC2CCCC2)CC1 | 14.1 µM [falling, partial curve, poor fit] | –
Nc1nonc1-n1nnc(C(=O)N/N=C/c2cc(Br)ccc2O)c1CSC1=NCCS1 | 10 µM [rising, partial curve] | –

Complete entries, looked up by structure. Order of values: AC50 [1]	AC50 [2]
Cc1ccc(C)n1-c1ccc(C(=O)NC2CCN(Cc3ccccc3)CC2)cc1 is listed with 14.1 µM [rising, partial curve]	15.8 µM [rising, partial curve]
CCN(CC)S(=O)(=O)N1CCC(C(=O)NC2CCCC2)CC1 is listed with 14.1 µM [falling, partial curve, poor fit]	–
COc1ccc(N2CCN(C(=O)Cc3nn(C)c(=O)c4ccccc34)CC2)cc1 is listed with 35.5 µM [rising, single point]	–

Remaining list, next part

Compound | AC50 [1] | AC50 [2]
COCCNC(=O)/C(C#N)=C/c1ccc(C)o1 | 0.0282 µM [falling, full curve, poor fit] | –
CCS(=O)(=O)Nc1cccc(C2=NN(S(=O)(=O)c3ccc(C)cc3)C(c3ccco3)C2)c1 (configuration not stated) | 1.26 µM [rising, single point] | –
N#C/C(=C\c1ccc(Cl)s1)C(=O)N1CCN(c2ccccc2)CC1 | 14.1 µM [rising, single point] | 12.6 µM [rising, single point]
CCOc1ccc(/C=N/NC(=O)c2c(-c3ccccc3)noc2C)cc1 | 2 µM [rising, partial curve] | –
CCCCOc1ccc(-c2nnc(N)s2)cc1 | 4.47 µM [falling, partial curve, poor fit] | –
Cc1cc(=S)[nH]c(=S)[nH]1 | 0.00447 µM [rising, full curve, poor fit] | 0.01 µM [rising, full curve, poor fit]
CCOc1ccccc1OCC(=O)Nc1ccc(N2CCCCC2)cc1 | 14.1 µM [rising, single point] | –
Cc1csc(SC(C)C(=O)Nc2ccc3c(c2)OCCO3)n1 (configuration not stated) | – | 0.0891 µM [falling, full curve, poor fit]
CCOC(=O)c1oc2cccc(O)c2c1CN(Cc1ccccc1)C(C)=O | 15.8 µM [rising, single point] | –
CCc1ccc(Nc2nnc(SCC(=O)Nc3sccc3C(N)=O)s2)cc1 | 35.5 µM [rising, partial curve] | 25.1 µM [rising, partial curve]
COc1ccc(CNC(=O)CN(c2ccc(OC)cc2)S(=O)(=O)c2c(C)nn(C)c2C)cc1 | – | 2.51 µM [rising, partial curve]
N#CC1=C(N)OC2=C(C(=O)CC(c3ccccc3)C2)C1c1ccc2c(c1)OCO2 (configuration not stated) | 31.6 µM [rising, single point] | 31.6 µM [rising, single point]
Cc1ccc(NC(=O)COC(=O)CCC(=O)c2cccs2)c(C)c1 | 35.5 µM [falling, single point] | –
c1ccc(-n2c(SCc3ccncc3)nnc2-c2ccco2)cc1 | 0.794 µM [falling, full curve, poor fit] | –
Cc1ccc(S(=O)(=O)CCC(=O)N2CCN(c3ccc(Cl)cc3)CC2)cc1 | 35.5 µM [rising, single point] | 35.5 µM [rising, single point]
Cc1c(NC(=O)c2ccc3c(c2)OCO3)cccc1-c1nc2ccccc2s1 | 5.62 µM [rising, single point] | 3.16 µM [rising, single point]
COc1ccc(CCNC(=O)c2ccc(-n3c(C)cc4c3CCCC4)cc2)cc1OC | 0.891 µM [rising, full curve, poor fit] | –
COc1ccc(-c2noc(CCC(=O)NCc3cc(Br)ccc3OC)n2)cc1 | 28.2 µM [rising, single point] | 20 µM [rising, partial curve, poor fit]
CNS(=O)(=O)c1ccc(N2CCCC2)c([N+](=O)[O-])c1 | 0.0316 µM [falling, full curve, poor fit] | –
O=C1CCCC(=O)C1=Cc1c[nH]c2ccccc12 | 0.355 µM [falling, full curve, poor fit] | –
Cc1[nH]n(-c2ccccc2)c(=O)c1/C=N/N1C(=O)c2cccc3cccc(c23)C1=O | 0.708 µM [rising, single point] | 0.0398 µM [rising, full curve, poor fit]
C=CCN(c1ccccc1Cl)S(=O)(=O)c1cccc(C(=O)NCCc2ccc(OC)cc2)c1 | 15.8 µM [rising, single point] | –
COc1ccc(/C=C2\SC(=O)N(CCC(=O)Nc3ccccc3)C2=O)cc1OC | – | 0.0794 µM [rising, single point]
Cc1cccc(NC(=S)NC2CCCCCC2)c1C | 35.5 µM [rising, single point] | –
COc1ccccc1/C=C(/C(=O)OCC(=O)NCc1ccccc1)c1ccccc1 | 22.4 µM [rising, partial curve] | 25.1 µM [rising, partial curve, poor fit]
CCn1c(CN2CCCCC2)nc2cc(NC(=O)c3ccccc3[N+](=O)[O-])ccc21 | 0.0178 µM [falling, full curve, poor fit] | 14.1 µM [falling, partial curve, poor fit]
CSc1ncc(C(=O)NCc2ccc(Cl)cc2)c(C(F)(F)F)n1 | – | 11.2 µM [rising, partial curve]
